From US20020102246A1, “Antimicrobial compositions” (Novozymes A/S, priority 2000, published 2002)
Where a name gives a salt, the structure may show the parent alone. At least one read-out could not be matched to a standard name with certainty.

Tested on: Pseudomonas putida ATCC12633
Experiment: Screening of laccase/enhancing agent combinations for growth inhibition (384 well microtiter plates)
Assay type: cell-based
Conditions: 25 min at 40° C., 50 mM HEPES pH 7.0, estimated from growth curves vs standard curve
[1] = mediated by CcL (Coprinus cinereus laccase)
[2] = mediated by MtL (Myceliophthora thermophila laccase)
[3] = mediated by PpL (Polyporus pinsitus laccase)
[4] = mediated by RsL (Rhizoctonia solani laccase)

Nc1cccc2c(N)cccc12 [1,5-Diaminonaphthalene]
CFU reduction [1]: >10^5 | CFU reduction [2]: >10^5 | CFU reduction [3]: >10^5 | CFU reduction [4]: >10^5

Oc1cccc2c(O)cccc12 [1,5-Dihydroxynaphthalene]
CFU reduction [1]: 10^2-10^5 | CFU reduction [3]: 10^2-10^5 | CFU reduction [4]: 10^2-10^5

Oc1ccc2ccc(O)cc2c1 [2,7-Dihydroxynaphthalene]
CFU reduction [1]: 10^2-10^5 | CFU reduction [2]: 10^2-10^5 | CFU reduction [3]: 10^2-10^5 | CFU reduction [4]: 10^2-10^5

Cc1cc(-c2cc(C)c(N)c(C)c2)cc(C)c1N [3,3′,5,5′-Tetramethylbenzidine]
CFU reduction [1]: 10^2-10^5 | CFU reduction [2]: 10^2-10^5 | CFU reduction [3]: 10^2-10^5

O=C(O)CCN1c2ccc(Br)cc2Oc2cc(Br)ccc21 [3,7-Dibromophenoxazine-10-propionic acid]
CFU reduction [1]: >10^5 | CFU reduction [3]: 10^2-10^5 | CFU reduction [4]: >10^5

O=C1CSC(=S)N1c1cccc(O)c1 [3-(3-Hydroxyphenyl)rhodanine]
CFU reduction [1]: 10^2-10^5 | CFU reduction [3]: 10^2-10^5

CCn1c2ccccc2c2cc(N(C)C)ccc21 [3-Dimethylamino-9-ethylcarbazole]
CFU reduction [1]: >10^5 | CFU reduction [2]: >10^5 | CFU reduction [3]: >10^5 | CFU reduction [4]: >10^5

Oc1ccc(-c2ccc(O)cc2)cc1 [4,4′-Biphenol, 97%, 4,4′-Biphenol]
CFU reduction [1]: 10^2-10^5 | CFU reduction [3]: 10^2-10^5 | CFU reduction [4]: 10^2-10^5

Nc1ccc(Nc2ccc(N)cc2)cc1 [4,4′-Diaminodiphenylamine sulfate]
CFU reduction [1]: >10^5 | CFU reduction [3]: >10^5 | CFU reduction [4]: >10^5

Oc1ccc(Oc2ccc(O)cc2)cc1 [4,4′-Dihydroxyphenyl ether, 4,4′-Dihydroxydiphenyl ether]
CFU reduction [1]: >10^5 | CFU reduction [2]: >10^5 | CFU reduction [3]: >10^5 | CFU reduction [4]: >10^5

COc1ccc(N(C)c2ccc(OC)cc2)cc1 [4,4′-Dimethoxy-N-methyldiphenylamine]
CFU reduction [1]: 10^2-10^5 | CFU reduction [2]: 10^2-10^5 | CFU reduction [3]: 10^2-10^5

Nc1ccc(/C=C/c2ccc(O)cc2)cc1 [4-Amino-4′-hydroxystilbene]
CFU reduction [3]: 10^2-10^5

CN(C)c1ccc(N=Nc2ccc(O)cc2)cc1 [4-Hydroxy-4′-dimethylamino azobenzene]
CFU reduction [1]: >10^5 | CFU reduction [2]: >10^5 | CFU reduction [3]: >10^5 | CFU reduction [4]: >10^5

Nc1ccc(O)cc1 [4-aminophenol]
CFU reduction [1]: >10^5 | CFU reduction [2]: >10^5 | CFU reduction [3]: >10^5 | CFU reduction [4]: >10^5

COc1ccc2ccc(O)cc2c1 [7-Methoxy-2-naphthol, 98%, 7-Methoxy-2-naphthol]
CFU reduction [1]: 10^2-10^5 | CFU reduction [3]: 10^2-10^5

CN1c2ccccc2Oc2ccccc21 [10-Methylphenoxazine]
CFU reduction [1]: 10^2-10^5 | CFU reduction [2]: 10^2-10^5 | CFU reduction [3]: 10^2-10^5

COC(=O)c1cc(OC)c(O)c(OC)c1 [Methylsyringate]
CFU reduction [1]: 10^2-10^5 | CFU reduction [2]: 10^2-10^5 | CFU reduction [3]: 10^2-10^5 | CFU reduction [4]: 10^2-10^5

CN(C)c1ccc(N=Cc2ccccc2)cc1 [N′-Benzylidene-N,N-dimethyl-p-phenylenediamine]
CFU reduction [1]: 10^2-10^5 | CFU reduction [3]: 10^2-10^5

CCCOC(=O)/C=C/c1cc(OC)c(O)c(OC)c1 [Propyl sinapate]
CFU reduction [1]: >10^5 | CFU reduction [4]: >10^5

O=C(O)/C=C/c1ccc(O)cc1 [p-curmaric acid, p-Coumaric acid]
CFU reduction [3]: 10^2-10^5
